Results are given in words; binding and its absence hold for the method and conditions named. In cells and extracts the contact can be indirect. Binding can be weak; no strength is given. Tags and fused reporters may be left off the sequences shown.
Target: hepatitis B precore protein with Flag tag (hepatitis B virus)
Assay: co-IP; HEK293T co-transfected with Myc-OTUD5 and a Flag-tagged HBV protein; lysed 48 h after transfection in 50 mM Tris-HCl pH 8.0, 150 mM NaCl, 1% NP-40; lysates incubated overnight with anti-FLAG M2 magnetic beads (Fig. 4B-D) or anti-Myc magnetic beads (Fig. 4E-G)

B1: OTUD5 with Myc tag (enzyme, UniProt Q96G74 1-571)
chain: MTILPKKKPPPPDADPANEPPPPGPMPPAPRRGGGVGVGGGGTGVGGGDRDRDSGVVGARPRASPPPQGPLPGPPGALHRWALAVPPGAVAGPRPQQASPPPCGGPGGPGGGPGDALGAAAAGVGAAGVVVGVGGAVGVGGCCSGPGHSKRRRQAPGVGAVGGGSPEREEVGAGYNSEDEYEAAAARIEAMDPATVEQQEHWFEKALRDKKGFIIKQMKEDGACLFRAVADQVYGDQDMHEVVRKHCMDYLMKNADYFSNYVTEDFTTYINRKRKNNCHGNHIEMQAMAEMYNRPVEVYQYSTGTSAVEPINTFHGIHQNEDEPIRVSYHRNIHYNSVVNPNKATIGVGLGLPSFKPGFAEQSLMKNAIKTSEESWIEQQMLEDKKRATDWEATNEAIEEQVARESYLQWLRDQEKQARQVRGPSQPRKASATCSSATAAASSGLEEWTSRSPRQRSSASSPEHPELHAELGMKPPSPGTVLALAKPPSPCAPGTSSQFSAGADRATSPLVSLYPALECRALIQQMSPSAFGLNDWDDDEILASVLAVSQQEYLDSMKKNKVHRDPPPDKS
- binding: binds

From paper PMC10613150
